Test results: the supplement of paper PMC3334620
Over roughly 33,000 sequences, “E-score (-0.5 to 0.5)” has its median near -0.0014; the highest 2% begin near 0.25. The list shows a part of the results.

Target: T1, Cad1 (UniProt P24813)
T1 sequence: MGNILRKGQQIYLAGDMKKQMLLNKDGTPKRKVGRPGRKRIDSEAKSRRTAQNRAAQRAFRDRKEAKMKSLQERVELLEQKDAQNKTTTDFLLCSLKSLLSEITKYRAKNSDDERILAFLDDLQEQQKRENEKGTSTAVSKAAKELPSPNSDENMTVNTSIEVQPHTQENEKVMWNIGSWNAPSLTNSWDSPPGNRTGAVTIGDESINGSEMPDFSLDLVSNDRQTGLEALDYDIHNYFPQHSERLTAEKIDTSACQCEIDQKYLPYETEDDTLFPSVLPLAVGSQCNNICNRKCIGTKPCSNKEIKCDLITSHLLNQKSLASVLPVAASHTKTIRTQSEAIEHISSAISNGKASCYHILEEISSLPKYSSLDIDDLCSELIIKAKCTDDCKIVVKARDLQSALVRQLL
Experiment: PBM E-score (8-mer binding enrichment) (E-score (-0.5 to 0.5)); higher = stronger / more preferred TF binding
Settings: protein concentration: 100 nM; construct: GST-full length
How it was run: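 Universal all-10-mer Agilent arrays, double-stranded by primer extension on fresh or once-stripped slides, were probed with about 100-200 nM GST-tagged yeast transcription factors made by PURExpress. Fluorescent anti-GST detected bound protein, and masliner normalised the scans. E-scores from the Universal PBM Analysis Suite were given to each ungapped eight-base word pooled with its reverse complement.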

| Sequence | PBM E-score |
| --- | --- |
| CCGACCCG | 0.0539 |
| CCGGGTGC | -0.053 |
| CAAATGTA | 0.219 |
| CTATCTTA | 0.0111 |
| GCTAAATA | 0.156 |
| CTCAACAG | 0.0205 |
| CCCTGATC | -0.18 |
| CTGTCATA | 0.15 |
| ACCGGTCG | -0.118 |
| CGAGAAGC | -0.182 |
| CCCATCAC | 0.0107 |
| ATCACAGC | 0.0755 |
| AATGGGCC | -0.231 |
| CCTGCTAC | 0.0146 |
| ACAGAACA | 0.0452 |
| ACTCCGCA | -0.0105 |
| CCATGGCA | 0.0272 |
| TAGGCGCA | 0.0403 |
| GAAACAGC | -0.0737 |
| CCGCTAAC | -0.00623 |
| GCGGAGTA | 0.0675 |
| ACCCGGGA | -0.0703 |
| CACAATCG | 0.0785 |
| CCCGTCTA | -0.121 |
| ACAGACCG | -0.126 |

| Sequence | PBM E-score |
| --- | --- |
| ACACATCA | -0.151 |
| GAGGGGAC | -0.0993 |
| CGATTAAC | -0.0107 |
| CATTACCG | 0.0345 |
| ACTTAAGT | 0.212 |
| ATTGTGCG | 0.0629 |
| ACAGAGCG | -0.112 |
| TCTGGACA | 0.0422 |
| ACTGTCTC | -0.0617 |
| CATGAGTA | -0.0686 |
| AGGATTCG | 0.018 |
| AGCTTCGA | -0.12 |
| ATGGTGCG | 0.0364 |
| ACGGCCCT | -0.0728 |
| CTAAGCTC | -0.0394 |
| CACTTAAG | 0.0974 |
| GAGTTTGC | -0.123 |
| GCACGCCC | -0.00875 |
| GCCCATGA | 0.0588 |
| GGTCCTCA | -0.0754 |
| AATCATGT | 0.235 |
| ATGCCTTA | -0.158 |
| ATATTTGA | 0.0318 |
| AGTCACCA | -0.113 |
| AATGGCAG | -0.0159 |

| Sequence | PBM E-score |
| --- | --- |
| ACATAACA | 0.273 |
| AGGTGACA | 0.155 |
| CGCTACCG | -0.00025 |
| GGTCTCTA | -0.17 |
| AGCATAGC | -0.108 |
| GGAGTAAC | -0.0257 |
| AGCGATCA | -0.00831 |
| CAGCGCGA | 0.00691 |
| CATGGGGG | -0.271 |
| TGCCGGCA | 0.148 |
| AAAGCAGG | -0.0901 |
| GCATCCCA | -0.303 |
| GGTTGGTA | 0.101 |
| CTATGATA | 0.0824 |
| CAGCTCTA | -0.206 |
| GCCCCGAA | -1e-05 |
| TACTGAGA | -0.037 |
| ACTTCTTA | 0.0763 |
| AAACGGGA | 0.0625 |
| AAGCTCCT | -0.289 |
| AAAAATCG | -0.00417 |
| GTGCAGGA | -0.057 |
| AAGTTCCG | 0.0348 |
| CCAATTTA | 0.193 |
| CTTCCCCA | -0.11 |

Quoted from the listing.
PBM E-score with GTGCAGGA reads -0.057
PBM E-score with AATCATGT reads 0.235

(continued)

| Sequence | PBM E-score |
| --- | --- |
| AGAATGGA | 0.091 |
| ATTGCCGA | 0.027 |
| AGCCTGCA | -0.0129 |
| CTATATAG | 0.0376 |
| GGTGTACA | -0.029 |
| CTAAAGTA | -0.234 |
| AACGCCTC | -0.217 |
| CCAGTAAC | 0.0826 |
| CAGGGGCG | -0.0592 |
| ATCGCAAG | 0.0727 |
| CGCTTATC | 0.103 |
| ACCCGTAG | -0.367 |
| ACAACCTC | -0.135 |
| TTCATGAA | 0.181 |
| GCGTGTGA | 0.0809 |
| AACGACCT | -0.0376 |
| CTGTGTGA | 0.111 |
| CATTGCGG | -0.124 |
| GACGAACC | 0.0741 |
| ATGGTAGC | -0.0481 |
| ACTTGTAC | -0.0789 |
| CCTCTTCC | -0.235 |
| AAGGTACC | 0.0111 |
| GTTACAAA | 0.223 |
| CCAGCGCA | -0.0267 |

Exported tab-delimited: part of the list above
Sequence	PBM E-score
AACGACCT	-0.0376
CTGTGTGA	0.111
CATTGCGG	-0.124
GACGAACC	0.0741
ATGGTAGC	-0.0481

Next part.

| Sequence | PBM E-score |
| --- | --- |
| AGGGGCTC | -0.212 |
| TACCCTCA | -0.188 |
| GCCCAGTA | -0.141 |
| TAAGCGTA | -0.0691 |
| CGCGGTTC | 0.0904 |
| GAGGCACA | -0.207 |
| AGGAGGCG | -0.229 |
| GGCCGTTA | 0.0668 |
| GGGGGGCA | -0.471 |
| GTCGTTTA | 0.00937 |
| ACCCCAGT | -0.109 |
| AGATGATG | 0.0867 |
| CAGGTAGA | -0.0922 |
| CTTCCATA | -0.244 |
| CAGGAAGG | -0.286 |
| TCGGTAGA | 0.176 |
| CAGTCTAA | 0.0662 |
| TGACCCCA | -0.18 |
| GGCTAGCC | -0.382 |
| AGTTAACG | 0.0767 |
| ACGGGCTG | 0.0123 |
| AGAGGGAG | -0.107 |
| AAAATCTT | 0.0179 |
| CTTAGCTC | -0.151 |
| GGGCATTA | -0.152 |

| Sequence | PBM E-score |
| --- | --- |
| AATTACCT | 0.0297 |
| CCTTCCAC | -0.193 |
| GCTCACTA | 0.146 |
| ACCGGCAC | 0.175 |
| ACAGTGAG | 0.0189 |
| CTTAGACC | 0.0241 |
| GGAAACAA | -0.0691 |
| ACGAATAC | 0.132 |
| AATACGGC | 0.153 |
| AGTTGTGA | 0.14 |
| CCAAACAA | 0.0792 |
| ACACCATG | -0.187 |
| AAGCCTCG | -0.00547 |
| GATCAGAC | -0.0211 |
| CCGCCCGC | -0.0183 |
| ATTATTGC | 0.176 |
| CCTTGTAA | 0.049 |
| AACAATCC | 0.155 |
| CAATCAAA | 0.019 |
| CCCCTGTA | -0.107 |
| CGGCTGTC | -0.113 |
| ACACTAAT | 0.141 |
| CCCGGCTC | -0.191 |
| CGAGCGTC | -0.016 |
| CCTTCGAA | 0.136 |

Reprinted at random: two entries already listed.

| Sequence | PBM E-score |
| --- | --- |
| AATACGGC | 0.153 |
| GCTCACTA | 0.146 |

(next part)

| Sequence | PBM E-score |
| --- | --- |
| AGACTCTA | -0.191 |
| TAGATTAA | 0.135 |
| AAGGCGAC | -0.103 |
| CGTTGTGC | -0.119 |
| CTATCGGC | -0.0279 |
| CAGCTGAC | 0.182 |
| CACACTCG | 0.0692 |
| ACGGCAGT | -0.15 |
| ATCCACAA | 0.165 |
| CACGTCGC | -0.0804 |
| GCAGGAGC | -0.195 |
| GAGATATA | 0.086 |
| ATTCCTTC | 0.105 |
| AAGTTGCA | 0.0503 |
| GAAGCAAA | -0.031 |
| AAGCGGCA | 0.108 |
| CAGTAGGC | -0.0171 |
| AACCCAAG | -0.0408 |
| CGGGGCGA | 0.0369 |
| AGTACGAT | -0.0359 |
| CTCGAGAC | 0.0617 |
| ATCAACTC | 0.0517 |
